According to patent US20220017471A1, “FUNCTIONALITY INDEPENDENT LABELING OF ORGANIC COMPOUNDS” (Shanghai Tech University, priority 2018, published 2022):
Structures can show the parent of a compound that is named as a salt. At least one structure is not confirmed: it was looked up by name or label, or the drawing left a doubt.

Protein sequences, listed by entry. Tags and fused reporters are not part of them.
UniProt P0DMV8, whole entry: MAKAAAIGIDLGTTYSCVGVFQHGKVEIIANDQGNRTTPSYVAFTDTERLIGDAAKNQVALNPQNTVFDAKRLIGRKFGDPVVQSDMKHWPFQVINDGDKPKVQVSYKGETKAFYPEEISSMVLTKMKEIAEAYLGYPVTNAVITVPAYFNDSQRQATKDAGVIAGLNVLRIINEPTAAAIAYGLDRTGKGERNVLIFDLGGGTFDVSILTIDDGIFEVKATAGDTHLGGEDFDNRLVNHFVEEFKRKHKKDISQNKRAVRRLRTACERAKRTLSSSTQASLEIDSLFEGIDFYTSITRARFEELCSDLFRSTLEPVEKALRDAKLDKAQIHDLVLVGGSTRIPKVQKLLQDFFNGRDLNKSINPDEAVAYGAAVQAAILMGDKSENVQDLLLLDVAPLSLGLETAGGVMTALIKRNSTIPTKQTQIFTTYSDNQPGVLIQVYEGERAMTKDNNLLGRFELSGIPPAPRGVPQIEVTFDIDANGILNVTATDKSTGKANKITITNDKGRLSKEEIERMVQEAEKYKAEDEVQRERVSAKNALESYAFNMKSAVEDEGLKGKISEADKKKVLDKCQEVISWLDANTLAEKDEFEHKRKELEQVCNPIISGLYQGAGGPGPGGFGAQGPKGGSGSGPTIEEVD
UniProt P09874, whole entry: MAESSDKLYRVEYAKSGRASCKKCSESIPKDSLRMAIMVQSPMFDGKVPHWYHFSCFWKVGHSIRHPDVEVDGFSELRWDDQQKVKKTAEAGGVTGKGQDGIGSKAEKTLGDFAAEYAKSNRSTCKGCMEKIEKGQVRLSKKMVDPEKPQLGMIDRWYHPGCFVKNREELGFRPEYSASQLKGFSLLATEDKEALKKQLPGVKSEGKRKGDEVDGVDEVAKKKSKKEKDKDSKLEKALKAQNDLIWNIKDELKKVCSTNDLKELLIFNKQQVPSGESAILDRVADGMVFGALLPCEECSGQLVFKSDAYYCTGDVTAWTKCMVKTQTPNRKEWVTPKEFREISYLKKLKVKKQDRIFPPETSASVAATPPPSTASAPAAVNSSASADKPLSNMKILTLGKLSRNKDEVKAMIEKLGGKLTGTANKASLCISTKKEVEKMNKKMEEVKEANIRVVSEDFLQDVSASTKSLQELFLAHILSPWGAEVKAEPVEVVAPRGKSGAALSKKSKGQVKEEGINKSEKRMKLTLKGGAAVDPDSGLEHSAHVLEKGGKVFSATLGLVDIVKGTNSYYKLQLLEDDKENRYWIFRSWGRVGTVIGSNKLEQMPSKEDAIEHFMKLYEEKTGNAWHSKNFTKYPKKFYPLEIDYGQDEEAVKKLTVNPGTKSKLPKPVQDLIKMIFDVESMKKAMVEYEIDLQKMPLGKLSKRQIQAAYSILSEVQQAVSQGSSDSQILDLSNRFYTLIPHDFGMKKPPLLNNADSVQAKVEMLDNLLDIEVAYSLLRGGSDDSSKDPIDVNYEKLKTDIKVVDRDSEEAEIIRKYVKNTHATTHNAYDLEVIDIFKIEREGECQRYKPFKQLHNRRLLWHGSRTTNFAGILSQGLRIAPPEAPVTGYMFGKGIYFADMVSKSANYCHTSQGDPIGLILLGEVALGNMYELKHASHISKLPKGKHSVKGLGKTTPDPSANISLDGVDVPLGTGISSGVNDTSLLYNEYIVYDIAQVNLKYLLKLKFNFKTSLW

How the values were obtained:
[1] = target: T1, heat shock 70 kDa protein (HSP70) (Homo sapiens, UniProt P0DMV8); test: nDEL affinity selection against HSP70 (enrichment fold by deep sequencing); type: binding; details: ratio of normalized sequencing counts in presence and absence of target protein; DNA-encoded compound
T1 construct: purchased Sino Biological 11660-H07H
Experimental: The panning procedure for these two soluble protein were the same. 5 μg of target protein was mixed with Ni-charged MagBeads (GenScript, Cat. #L00295), 5 nM DEL library and 10 μg/mL Salmon sperm DNA. The final volume to adjusted to 100 μL. The mixture was rotated at room temperature for 1.5 h. After washing 5 times by phosphate-buffered saline supplemented 0.05% Tween-20 (PBST), the target protein binding chemical-DNA conjugations were eluted by heating at 95° C. for 10 min in 50 μL elution buffer (20 mM Tris, pH 7.4, 100 mM NaCl). The eluted DEL compounds were amplified by PCR using Takara PrimerSTAR Max DNA Polymerase (Takara, Cat. #R045A). Then the excess primers was removed by Hieff NGS™ smarter DNA clean beads (Yeasen, Cat. #12600E503) and evaluated on 4% DNA agarose gel. […]
(§1) The combinatorial chemical library was constructed by three building block sub libraries, containing 6, 46 and 46 chemical building blocks respectively for the first, second and third building block libraries, respectively. […] The coding sequences were counted for all the compounds across different samples. The total read-counts of all the compounds in a given sample were calculated. The read-counts for each individual compound were divided by the total counts, multiplied with a constant of 100000. […]
The fold changes of each compound in the after-selection library comparing to the reference library were calculated. […]

[2] = target: T2, poly [ADP-ribose] polymerase 1 (PARP1) (Homo sapiens, UniProt P09874); test: nDEL affinity selection against PARP-1 (enrichment fold by deep sequencing); type: binding; details: for Fold Change, enrichment folds for PARP-1 binder selection: ratio of normalized sequencing counts in presence and absence of target protein, DNA-encoded compound
T2 construct: purchased Sino Biological 11040-H08B
Experimental: The his-tag fused recombinant human PARP-1 (Sino Biological, Cat. #11040-H08B) and human-HSP70 (Sino Biological, Cat. #11660-H07H) were obtained from commercial source. The panning procedure for these two soluble protein were the same. 5 μg of target protein was mixed with Ni-charged MagBeads (GenScript, Cat. #L00295), 5 nM DEL library and 10 μg/mL Salmon sperm DNA. The final volume to adjusted to 100 μL. The mixture was rotated at room temperature for 1.5 h. After washing 5 times by phosphate-buffered saline supplemented 0.05% Tween-20 (PBST), the target protein binding chemical-DNA conjugations were eluted by heating at 95° C. for 10 min in 50 μL elution buffer (20 mM Tris, pH 7.4, 100 mM NaCl). The eluted DEL compounds were amplified by PCR using Takara PrimerSTAR Max DNA Polymerase (Takara, Cat. #R045A). Then the excess primers was removed by Hieff NGS™ smarter DNA clean beads (Yeasen, Cat. #12600E503) and evaluated on 4% DNA agarose gel. The amplified products was subjected for high-throughput sequencing using Illumina HiSeq X10 Analyzer.
as §1
The fold changes of each compound in the after-selection library comparing to the reference library were calculated. For example, if SampleA and Reference library were compared, for the fold change of CompoundM was calculated as: […]
The hit criteria of nDEL screening take into account of both the normalized enrichment fold values (y-axis) and deep sequencing read counts (x-axis). Compounds with read counts less than 10 are considered unreliable, thus they are eliminated immediately from DEL before on-target screening. […]

Structure (SMILES): COc1cc2c3cc1Oc1c(OC)c(OC)cc4c1[C@@H](Cc1ccc(O)c(c1)Oc1ccc(cc1)C[C@@H]3N(C)CC2)N(C)CC4 [Berbamine dihydrochloride]
- Enrichment Fold, HSP70 binder selection [1]: 4.8
- Fold Change, enrichment folds for PARP-1 binder selection [2]: 2.15

Structure (SMILES): O=c1c(O[C@@H]2O[C@H](CO)[C@H](O)[C@H](O)[C@H]2O)c(-c2ccc(O)c(O)c2)oc2cc(O)cc(O)c12 [Hyperoside]
- Enrichment Fold, HSP70 binder selection [1]: 3.4
- Selected among enriched chemicals in PARP-1 nDEL screening ([2]; hit selection, FIG. 20(b), FIG. 21): selected
- Fold Change, enrichment folds for PARP-1 binder selection [2]: 2.25
